{"source": "patent US7947666B2", "about": "“2-methylene-(20S,25S)-19,26-dinor-vitamin D analogs” (Wisconsin Alumni Research Foundation, priority 2007, dated 2011)", "system": "24-hydroxylase (24Ohase) gene promoter", "test": "In vitro transcription assay, luciferase reporter in ROS 17/2.8 (bone) cells", "format": "cell-based", "details": "ROS 17/2.8 cells, 24-hydroxylase promoter luciferase, 16 h; FIG. 3; read-out: EC50, transcriptional activity in bone cells", "procedure": "Transcription activity was measured in ROS 17/2.8 (bone) cells that were stably transfected with a 24-hydroxylase (24Ohase) gene promoter upstream of a luciferase reporter gene (Arbour et al., 1998). Cells were given a range of doses. Sixteen hours after dosing the cells were harvested and luciferase activities were measured using a luminometer.\nRLU=relative luciferase units."}
{"molecule": "C=C1/C(=C\\C=C2/CCC[C@]3(C)[C@@H]([C@H](C)CCCC(C)(C)O)CC[C@@H]23)C[C@@H](O)C[C@@H]1O", "note": "[1,25(OH)2D3, 1α,25-dihydroxyvitamin D3, reference compound]", "values": [{"measurement": "EC50", "result": 0.2, "unit": "nM"}]}
